Data as given in doi:10.1101/2020.07.08.192955.
No constants are given. Whether binding was seen depends on the method and setting. In cells and extracts the contact can be indirect. Some entries that bind do so weakly or less than the wild type. Tags and fused reporters may be left off the sequences shown.

Amino acid sequences for entries named in this document (tags omitted). Residues count along the entry.
UniProt P11021, residues 19-654: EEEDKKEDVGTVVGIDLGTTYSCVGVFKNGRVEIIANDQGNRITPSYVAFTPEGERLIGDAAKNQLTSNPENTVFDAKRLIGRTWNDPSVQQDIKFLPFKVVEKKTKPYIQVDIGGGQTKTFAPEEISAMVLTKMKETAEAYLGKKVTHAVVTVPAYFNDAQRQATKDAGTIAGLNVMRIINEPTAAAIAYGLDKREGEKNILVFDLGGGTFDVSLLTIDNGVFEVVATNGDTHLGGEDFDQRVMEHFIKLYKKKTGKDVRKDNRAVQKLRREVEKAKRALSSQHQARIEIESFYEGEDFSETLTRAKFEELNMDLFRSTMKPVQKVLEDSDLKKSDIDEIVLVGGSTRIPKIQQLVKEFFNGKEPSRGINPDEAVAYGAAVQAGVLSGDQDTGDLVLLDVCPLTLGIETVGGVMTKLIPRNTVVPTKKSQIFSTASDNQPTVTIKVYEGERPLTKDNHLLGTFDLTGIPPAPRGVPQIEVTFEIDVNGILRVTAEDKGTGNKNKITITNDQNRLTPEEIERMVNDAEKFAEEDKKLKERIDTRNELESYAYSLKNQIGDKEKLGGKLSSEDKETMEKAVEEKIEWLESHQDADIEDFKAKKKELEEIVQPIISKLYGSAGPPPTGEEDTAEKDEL

T1: WT EGFP-FLAG-CD59 (UniProt P13987)
T1 sequence (chain, N-glycan (site N43); GPI-anchor): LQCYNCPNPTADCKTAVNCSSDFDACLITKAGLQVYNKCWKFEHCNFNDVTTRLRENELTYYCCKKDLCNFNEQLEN

T2: misfolded CD59 (EGFP-FLAG-CD59 (C94S)) (UniProt P13987)
T2 sequence (chain, N-glycan (site N43); GPI-anchor): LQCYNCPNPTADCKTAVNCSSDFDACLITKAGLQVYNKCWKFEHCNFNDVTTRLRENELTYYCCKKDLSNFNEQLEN

T3: misfolded CD59 lacking an N-glycan (EGFP-FLAG-CD59 (C94S, N43Q)) (UniProt P13987)
T3 sequence (chain, GPI-anchor; no N-glycan): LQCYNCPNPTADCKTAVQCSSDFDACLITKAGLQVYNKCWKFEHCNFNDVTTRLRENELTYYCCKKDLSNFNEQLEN

T4: soluble misfolded CD59 (EGFP-FLAG-CD59 (C94S, G103*)) (UniProt P13987)
T4 sequence (chain, N-glycan (site N43); no GPI): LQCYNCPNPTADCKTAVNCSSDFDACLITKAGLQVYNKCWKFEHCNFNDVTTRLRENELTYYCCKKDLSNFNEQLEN

T5: misfolded CD59 (EGFP-FLAG-CD59 (C94S)), P13987
T5 chain: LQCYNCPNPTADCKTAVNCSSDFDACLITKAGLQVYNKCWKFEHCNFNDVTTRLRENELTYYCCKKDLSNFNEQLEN

T6: soluble misfolded CD59 (EGFP-FLAG-CD59 (C94S, G103*)), P13987
T6 chain: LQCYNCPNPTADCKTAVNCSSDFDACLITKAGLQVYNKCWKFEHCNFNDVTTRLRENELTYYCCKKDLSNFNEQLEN


Legend:
Assay in all cases: co-IP
WT EGFP-FLAG-CD59 = target: T1, WT EGFP-FLAG-CD59
[1] = target: T2, misfolded CD59 (EGFP-FLAG-CD59 (C94S))
[2] = target: T3, misfolded CD59 lacking an N-glycan (EGFP-FLAG-CD59 (C94S, N43Q))
[3] = target: T4, soluble misfolded CD59 (EGFP-FLAG-CD59 (C94S, G103*))
[4] = target: T5, misfolded CD59 (EGFP-FLAG-CD59 (C94S)), …; details: remark: other sources report otherwise
[5] = target: T6, soluble misfolded CD59 (EGFP-FLAG-CD59 …); details: remark: other sources report otherwise

| binding (WT EGFP-FLAG-CD59) | binding [1] | binding [2] | binding [3] | binding [4] | binding [5] | Molecule |
| --- | --- | --- | --- | --- | --- | --- |
| no binding | no binding | no binding | no binding |  |  | BiP (from UniProt P11021 19-654) |
| no binding |  | no binding |  |  |  | calreticulin (from UniProt P27797 18-417) |
|  |  |  |  | no binding | no binding | calreticulin, P27797 18-417 (protein, here or on the partner: N-glycan (site N43); no GPI) EPAVYFKEQFLDGDGWTSRWIESKHKSDFGKFVLSSGKFYGDEEKDKGLQTSQDARFYALSASFEPFSNKGQTLVVQFTVKHEQNIDCGGGYVKLFPNSLDQTDMHGDSEYNIMFGPDICGPGTKKVHVIFNYKGKNVLINKDIRCKDDEFTHLYTLIVRPDNTYEVKIDNSQVESGSLEDDWDFLPPKKIKDPDASKPEDWDERAKIDDPTDSKPEDWDKPEHIPDPDAKKPEDWDEEMDGEWEPPVIQNPEYKGEWKPRQIDNPDYKGTWIHPEIDNPEYSPDPSIYAYDNFGVLGLDLWQVKSGTIFDNFLITNDEAYAEEFGNETWGVTKAAEKQMKDKQDEEQRLKEEEEDKKRKEEEEAEDKEDDEDKDEDEEDEEDKEEDEEEDVPGQAKDEL |
| binds |  | no binding |  |  |  | calnexin (protein, UniProt P27824 21-592) HDGHDDDVIDIEDDLDDVIEEVEDSKPDTTAPPSSPKVTYKAPVPTGEVYFADSFDRGTLSGWILSKAKKDDTDDEIAKYDGKWEVEEMKESKLPGDKGLVLMSRAKHHAISAKLNKPFLFDTKPLIVQYEVNFQNGIECGGAYVKLLSKTPELNLDQFHDKTPYTIMFGPDKCGEDYKLHFIFRHKNPKTGIYEEKHAKRPDADLKTYFTDKKTHLYTLILNPDNSFEILVDQSVVNSGNLLNDMTPPVNPSREIEDPEDRKPEDWDERPKIPDPEAVKPDDWDEDAPAKIPDEEATKPEGWLDDEPEYVPDPDAEKPEDWDEDMDGEWEAPQIANPRCESAPGCGVWQRPVIDNPNYKGKWKPPMIDNPSYQGIWKPRKIPNPDFFEDLEPFRMTPFSAIGLELWSMTSDIFFDNFIICADRRIVDDWANDGWGLKKAADGAAEPGVVGQMIEAAEERPWLWVVYILTVALPVFLVILFCCSGKKQTSGMEYKKTDAPQPDVKEEEEEKEEEKDKGDEEEEGEEKLEEKQKSDAEEDGGTVSQEEEDRKPKAEEDEILNRSPRNRKPRRE |
